PubChem BioAssay AID1259308, NCATS – 2017

Purpose: 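Genes whose loss raises luciferase production in HEK293 cells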 (primary screen)
System: human HEK293 embryonic kidney cells stably expressing firefly luciferase (HEK-CMV-Luc2-Hygro)
Reagent: single siRNA against human genes, 0.8 pmol siRNA per well
Time to read-out: 72 h
Read-out: 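Reporter luminescence and viable-cell signal on separate replicate plates, given as percent of non-targeting control and median/MAD z-scores, plus per-cell luciferase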
Scale: total luciferase, z-score: higher = more reporter protein produced
Active means: 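Active when the median/MAD z-score for overall luciferase is greater than 3; a gene was taken forward for validation with new siRNAs if at least two of its three siRNAs passed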
Meaning of the calls: active = raised luciferase; inactive = no rise
Shown is an unselected part of about 59,000 deposited reagents. About 1,510 of all reagents (2.6%) count as active. 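Calls use total luciferase alone and ignore viability, so some active siRNAs may act by altering cell number.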 A number with no mark means an inactive call. Reagents against one gene are numbered here. Further read-outs or replicates are left out here. Reagent sequences are not shown.

FHL1 #1 gave total luciferase, z-score 1.1.
FHL1 #2 gave total luciferase, z-score -1.55.
FHL1 #3 scored total luciferase, z-score 1.36.
After knock-down of ALPP #1, the record shows total luciferase, z-score -0.0575.
With knock-down of ALPP #2 the results were total luciferase, z-score -0.464.
Silencing of ALPP #3 came out at: total luciferase, z-score 0.202.
For AP1G1 #1, the values are total luciferase, z-score -1.1.
For AP1G1 #2, the entry reads total luciferase, z-score 0.0753.
Knock-down of AP1G1 #3 came out at: total luciferase, z-score 1.52.
Against CHD4 #1, the values are total luciferase, z-score -0.0487.
With knock-down of CHD4 #2 the results were total luciferase, z-score -0.689.
With knock-down of CHD4 #3, the record shows total luciferase, z-score 3.73 (active).
With knock-down of IL18 #1, the screen gave total luciferase, z-score 4.01 (active).
With knock-down of IL18 #2, the screen gave total luciferase, z-score -1.84.
With knock-down of IL18 #3, the record shows total luciferase, z-score 2.14.
MKNK1 #1 gave total luciferase, z-score 0.113.
For MKNK1 #2, the values are total luciferase, z-score 0.516.
Depletion of MKNK1 #3 gave: total luciferase, z-score -0.323.
Against NRDC #1 the deposit lists total luciferase, z-score 0.317.
Depletion of NRDC #2 came out at: total luciferase, z-score -0.439.
For NRDC #3 the deposit lists total luciferase, z-score -1.81.
ZDHHC12 #1 scored total luciferase, z-score 0.0643.
Against ZDHHC12 #2 the deposit lists total luciferase, z-score 1.16.
ZDHHC12 #3 gave total luciferase, z-score -0.126.
Depletion of ACAP1 #1 gave: total luciferase, z-score -0.126.
For ACAP1 #2, the values are total luciferase, z-score -0.636.
After knock-down of ACAP1 #3, the screen gave total luciferase, z-score -0.138.
TPR #1 scored total luciferase, z-score -0.529.
Silencing of TPR #2 gave: total luciferase, z-score 1.31.
Against TPR #3 the deposit lists total luciferase, z-score -0.688.
Depletion of UGT8 #1 gave: total luciferase, z-score 0.851.
With knock-down of UGT8 #2, the screen gave total luciferase, z-score -0.0394.
After knock-down of UGT8 #3, the screen gave total luciferase, z-score -0.956.
Against DDX11 #1, the entry reads total luciferase, z-score 0.193.
DDX11 #2 showed total luciferase, z-score -0.0491.
Depletion of DDX11 #3 came out at: total luciferase, z-score 0.799.
Knock-down of POLR3A #1 resulted in: total luciferase, z-score 1.28.
For POLR3A #2, the values are total luciferase, z-score 1.31.
For POLR3A #3, the values are total luciferase, z-score -1.55.
EFCAB6 #1 gave total luciferase, z-score 0.167.
EFCAB6 #2 gave total luciferase, z-score 0.0202.
After knock-down of EFCAB6 #3 the results were total luciferase, z-score -1.79.

Records listed so far whose target name begins with A or a:
ALPP #1: total luciferase, z-score = -0.0575
ALPP #2: total luciferase, z-score = -0.464
ALPP #3: total luciferase, z-score = 0.202
AP1G1 #1: total luciferase, z-score = -1.1
AP1G1 #2: total luciferase, z-score = 0.0753
AP1G1 #3: total luciferase, z-score = 1.52
ACAP1 #1: total luciferase, z-score = -0.126
ACAP1 #2: total luciferase, z-score = -0.636
ACAP1 #3: total luciferase, z-score = -0.138
